PubChem BioAssay AID1347076 (National Center for Advancing Translational Sciences (NCATS), 2019)
About 13,000 (3.2%) of roughly 400,000 compounds were called active. Inconclusive results, whose numbers are uncertain, are shown with a selection of clear calls. The call rests on the fitted dose curve; in most records, active means well fitted cell-killing curve with a large enough effect; inconclusive means small, poorly fitted or top-dose-only effect, or effect the other way; inactive means flat fitted curve, though single readings scatter. Where the call is inconclusive, the potency comes from a doubtful curve fit.
On the % scale 0 is the no-effect control and ±100 the full control effect; potency means the concentration at half of the fitted maximal effect.

Assay: qHTS assay for MDR1-selective chemotherapeutics: Primary screen using the drug-selected MDR subline cells KB-V1; further: nearly all actives have a fitted effect of over 60% in size
Details: KB-V1 MDR cells viability, CellTiter-Glo, 72 h; activity change, negative = cytotoxicity: at 46.1 µM (top of the series)
Procedure, shortened: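 qHTS viability screen in drug-selected KB-V1 MDR cells: 72 h compound treatment at 37 degrees C, ATP luminescence end point.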
In the case of `CC(=O)NCCn1c(SCc2cccc([N+](=O)[O-])c2)nc2ccccc2c1=O`, the Potency is reported as inconclusive: 6.51 µM [cytotoxic, partial curve].
In the case of `Cc1ccc(Cl)cc1NS(=O)(=O)c1ccc2c(c1)NC(=O)CCS2`, the Potency is reported as inconclusive: 29.1 µM [cytotoxic, single point].
In the case of `O=S(=O)(c1ccc(Cl)s1)N1CCCc2cccc(O)c21`, the Potency is reported as “inactive”.
For `CCOC(=O)c1c(CN2CCOCC2)oc2ccc(OC)cc12`, the Potency was active: 16.4 µM.
In the case of `O=C(NC1CCCCC1)C(c1ccco1)N(CCc1ccccc1)C(=O)C(F)(F)F` (stereo not given), the Potency is reported as active: 7.31 µM.
For `Cc1ccc(N(Cc2ccc([N+](=O)[O-])cc2)C(=O)c2ccco2)cc1C`, the Potency was active: 10.3 µM.
For `CCn1c(SCc2ccc(C(=O)Nc3nccs3)cc2)nnc1-c1ccc(NC(C)=O)cc1`, the Potency was inconclusive: 25.9 µM [rising, partial curve, poor fit].
For `COc1cccc(-c2cc(C(=O)NCCN3CCOCC3)no2)c1`, the Potency was inconclusive: 13 µM [cytotoxic, partial curve].
With `CO/N=C/NC(=O)c1cn(-c2ccc(F)cc2)c(=O)c2ccccc12` the Potency was inconclusive: 14.6 µM [cytotoxic, partial curve].
For `Cc1ccc(S(=O)(=O)Cc2sc3ccccc3[n+]2C)cc1`, the Potency was active: 20.6 µM.
For `CC(C)CC1C(=O)N(Cc2cn(CCC3OCCCO3)nn2)CCS(=O)(=O)N1Cc1ccc(-c2ccc(F)cc2)cc1` (stereo not given), the activity change, negative = cytotoxicity was inconclusive: 27.1%.
In the case of `CC(C)OC(=O)Cn1cc(C#N)c2ccccc21`, the Potency is reported as “inactive”.
In the case of `CC(=O)N=c1nc(-c2ccccc2)n(-c2ccccc2)s1`, the Potency is reported as “inactive”.
With `N#CCSc1nc2c(sc(=S)n2Cc2ccco2)c(=O)n1-c1ccc(F)cc1` the Potency was inconclusive: 23.1 µM [cytotoxic, single point].
With `COc1ccc(NC(=O)CCC(=O)Nc2nnc(C3CCCCC3)s2)c(OC)c1` the activity change, negative = cytotoxicity was inconclusive: 10.3%.
For `CN(C1(C)CCS(=O)(=O)C1)S(=O)(=O)c1ccc(F)cc1` (stereo not given), the Potency was inconclusive: 10.3 µM [rising, partial curve, poor fit].
For `NC(=O)CSc1nc2cc([N+](=O)[O-])ccc2n1-c1cccc(C(F)(F)F)c1`, the Potency was active: 6.51 µM.
In the case of `Cc1ccc(/C=N/NC(=O)CNC(=O)c2cccs2)cc1`, the Potency is reported as inconclusive: 16.4 µM [rising, single point].
For `COC(=O)[C@@]12C[C@@H](CC(=O)NCC3CCCCC3)C(=O)N(Cc3ccccc3)C1=CCC(C)(C)C2`, the Potency was inconclusive: 13 µM [cytotoxic, partial curve].
For `CC1(C2CCC3C4CCC5CC6(CCC5(C)C4C(=O)CC32C)OCCO6)OCCO1` (stereo not given), the Potency was “inactive”.
In the case of `Cc1oc2ccc(O)c(CN3CCCC3)c2c1C(=O)Nc1ccccc1`, the Potency is reported as inconclusive: 16.4 µM [cytotoxic, single point].
In the case of `CCC(C)N1CC(O)=C(c2nc3ccccc3[nH]2)C1=N` (stereo not given), the Potency is reported as inconclusive: 29.1 µM [cytotoxic, single point].
With `Cc1ccc2nc(SCc3ccccc3)c(C=O)c(=O)n2c1` the Potency was active: 8.2 µM.
With `CCCCCn1c(C(Cc2ccccc2)NC(C)=O)nc2ccccc21` (stereo not given) the Potency was inconclusive: 29.1 µM [cytotoxic, single point].
In the case of `Cc1c([C@@H]2C[C@H]3CN(Cc4cccc(Cl)c4)C(=O)[C@]34CCCN24)cnn1C`, the Potency is reported as inconclusive: 7.31 µM [cytotoxic, partial curve].
For `Cc1noc(C)c1NC(=O)N(C)C[C@H]1Oc2ccc(NS(=O)(=O)c3ccccc3)cc2C(=O)N([C@H](C)CO)C[C@@H]1C`, the Potency was inconclusive: 29.1 µM [rising, single point].
In the case of `COc1cccc(CC2(CO)CCCN(Cc3[nH]c4ccc(C)cc4c3C)C2)c1` (stereo not given), the Potency is reported as inconclusive: 11.6 µM [cytotoxic, partial curve, poor fit].
In the case of `COc1ccccc1CNC(=O)c1ccccc1NS(C)(=O)=O`, the Potency is reported as inconclusive: 29.1 µM [cytotoxic, partial curve, poor fit].
For `Cn1nc(N)nc1N1CCN(c2ccc(F)cc2)CC1`, the Potency was “inactive”.
With `Clc1ccc2c(c1)C(N1CCNCC1)=Nc1ccccc1O2` the Potency was inconclusive: 9.2 µM [cytotoxic, partial curve, poor fit].
With `CCOC(=O)c1cccc(NC(=O)c2cnc3ccccc3n2)c1` the Potency was inconclusive: 14.6 µM [cytotoxic, partial curve, poor fit].
For `Cc1ccsc1/C=N/N1CCN(C2c3ccccc3-c3ccccc32)CC1`, the Potency was inconclusive: 29.1 µM [cytotoxic, single point].
For `CC(O)CNCc1ccccc1C(F)(F)F` (stereo not given), the Potency was inconclusive: 16.4 µM [rising, single point].
In the case of `COc1ccc(NS(=O)(=O)c2cc(NC(=O)C3CC3)ccc2N2CCOCC2)cc1`, the Potency is reported as inconclusive: 18.4 µM [cytotoxic, partial curve, poor fit].
For `CCCc1c(-c2ccc(F)cc2)ncn1CCc1ccccc1OC`, the Potency was inconclusive: 20.6 µM [cytotoxic, partial curve, poor fit].
With `CCCn1nnnc1NCc1cc(Br)ccc1OC` the Potency was inconclusive: 10.3 µM [rising, partial curve, poor fit].
With `COCCCNC(=O)Cc1c(C)c2cc3c(cc2oc1=O)OC(C)(C)CC3` the Potency was “inactive”.
In the case of `COc1cc(/C=C2\SC(c3ccccc3)=NC2=O)cc(Cl)c1O`, the Potency is reported as “inactive”.
With `CCOc1cc(/C=C2\N=C(C)OC2=O)cc(Br)c1OCCc1ccccc1` the Potency was “inactive”.
With `CCN(CC(=O)Nc1cccc(S(=O)(=O)N(C)c2ccccc2)c1)Cc1cccs1` the Potency was active: 4.61 µM.
For `O=C(NN=Cc1ccccc1O)C(O)(c1ccccc1)c1ccccc1`, the Potency was inconclusive: 10.3 µM [cytotoxic, partial curve].
For `COC(=O)c1sccc1NC(=O)CSc1ccccc1NS(=O)(=O)c1ccc(Cl)cc1`, the Potency was inconclusive: 11.6 µM [cytotoxic, partial curve].
For `COc1ccccc1NC(=O)CSc1nc2ccccc2n1C(C)=O`, the Potency was active: 16.4 µM.
In the case of `COC(=O)C1=C(C)N(Cc2ccccc2)C(=NCCN2CCOCC2)N[C@H]1CCc1ccccc1`, the Potency is reported as “inactive”.
In the case of `N#C/C(=C\c1ccc(F)c(F)c1)C(=O)NC1CCCCC1`, the Potency is reported as inconclusive: 13 µM [cytotoxic, partial curve].
